Measured values published in PMC7331280.
No constants are given. Whether binding was seen depends on the method and setting. In cells and extracts the contact can be indirect. Binding calls can cover weak binding; strength is not graded here.

B1: HIP1, human iNeurons (protein, UniProt O00291 1-1037)
chain: MDRMASSMKQVPNPLPKVLSRRGVGAGLEAAERESFERTQTVSINKAINTQEVAVKEKHARTCILGTHHEKGAQTFWSVVNRLPLSSNAVLCWKFCHVFHKLLRDGHPNVLKDSLRYRNELSDMSRMWGHLSEGYGQLCSIYLKLLRTKMEYHTKNPRFPGNLQMSDRQLDEAGESDVNNFFQLTVEMFDYLECELNLFQTVFNSLDMSRSVSVTAAGQCRLAPLIQVILDCSHLYDYTVKLLFKLHSCLPADTLQGHRDRFMEQFTKLKDLFYRSSNLQYFKRLIQIPQLPENPPNFLRASALSEHISPVVVIPAEASSPDSEPVLEKDDLMDMDASQQNLFDNKFDDIFGSSFSSDPFNFNSQNGVNKDEKDHLIERLYREISGLKAQLENMKTESQRVVLQLKGHVSELEADLAEQQHLRQQAADDCEFLRAELDELRRQREDTEKAQRSLSEIERKAQANEQRYSKLKEKYSELVQNHADLLRKNAEVTKQVSMARQAQVDLEREKKELEDSLERISDQGQRKTQEQLEVLESLKQELATSQRELQVLQGSLETSAQSEANWAAEFAELEKERDSLVSGAAHREEELSALRKELQDTQLKLASTEESMCQLAKDQRKMLLVGSRKAAEQVIQDALNQLEEPPLISCAGSADHLLSTVTSISSCIEQLEKSWSQYLACPEDISGLLHSITLLAHLTSDAIAHGATTCLRAPPEPADSLTEACKQYGRETLAYLASLEEEGSLENADSTAMRNCLSKIKAIGEELLPRGLDIKQEELGDLVDKEMAATSAAIETATARIEEMLSKSRAGDTGVKLEVNERILGCCTSLMQAIQVLIVASKDLQREIVESGRGTASPKEFYAKNSRWTEGLISASKAVGWGATVMVDAADLVVQGRGKFEELMVCSHEIAASTAQLVAASKVKADKDSPNLAQLQQASRGVNQATAGVVASTISGKSQIEETDNMDFSSMTLTQIKRQEMDSQVRVLELENELQKERQKLGELRKKHYELAGVAEGWEEGTEASPPTLQEVVTEKE
B2: Rab11-FIP5 (the mammalian homolog of rip11), mouse brain (protein, UniProt Q8R361 1-645)
chain: MALVRDPEPAAGSSRWLPTHVQVTVLRASGLRGKSSGAGSTSDAYTVIQVGREKYSTSVVEKTQGCPEWCEECSFELPPGALDGLLRAQEADAGPAPWASGPNAACELVLTTMHRSLIGVDKFLGRATVALDEVFRAGRAQHTQWYRLHSKPGKKEKERGEIQVTIQFTRNNLSASMFDLSMKDKPRSPFSKLKDRVKGKKKYDLESASAILPSSALEDPELGSLGKMGKAKGFFLRNKLRKSSLTQSNTSLGSDSTLSSTSGSLVYQGPGAELLTRSPSHSSWLSTEGGRDSIQSPKLLTHKRTYSDEASQLRAAPPRALLELQGHLDGASRSSLCVNGSHVYNEEPQPPLRHRSSISGPFPPSSSLHSVPPRSSEEGSRSSDDSWGRGSHGTSSSEAVPGQEELSKQAKGASCSGEEEGARLPEGKPVQVATPMVASSEAVAAEKDRKPRMGLFHHHHHQGLSRSEQGRRGSVGEKGSPSLGASPHHSSTGEEKAKSSWFGLRESKEPTQKPSPHPVKPLTAAPVEASPDRKQPRTSLSTALSSGLERLKTVTSGGIQSVLPASQLGSSVDTKRPKDSAVLDQSAKYYHLTHDELIGLLLQRERELSQRDEHVQELESYIDRLLVRIMETSPTLLQISPGPPK
B3: HIP1 (huntingtin-interacting protein 1), mouse brain (protein, UniProt Q8VD75 1-1029)
chain: MDRMASSMKQVSNPLPKVLSRRGVGAGMEAAERESFERTQTVSVNKAINTQEVAVKEKHARTCILGTHHEKGAQTFWSVVNRLPLSSNAMLCWKFCHVFHKLLRDGHPNVLKDSLRYKNELSDMSRMWGHLSEGYGQLCSIYLKLLRTRMEYHTKNPRFPGNLQMSDRQLDEAGESDVNNFFQLTVEMFDYLECELNLFQTVFNSLDMSRSVSVTTAGQCRLAPLIQVILDCSHLYDYTVKLLFKLHSCLPADTLQGHRDRFMEQFTKLKDLFQRSSNLQYFKRLIQIPQLPENPPNFLRASALSEHISPVVVIPAEVSSPDSEPVLEKDDLMDMDASQQTLFDNKFDDVFGSSLSSDPFNFNNQNGVNKDEKDHLIERLYREISGLTGQLDNMKIESQRAMLQLKGRVSELEAELAEQQHLGRQAMDDCEFLRTELDELKRQREDTEKAQRSLTEIERKAQANEQRYSKLKEKYSELVQNHADLLRKNAEVTKQVSVARQAQVDLEREKKELADSFARTQEQQDVLENLKHELATSRQELQVLHSNLETSAQSEAKWLTQIAELEKEQGSLATVAAQREEELSALRDQLESTQIKLAGAQESMCQQVKDQRKTLLAGIRKAAEREIQEALSQLEEPTLISCAGSTDHLLSKVSSVSSCLEQLEKNGSQYLACPEDISELLHSITLLAHLTGDTIIQGSATSLRAPPEPADSLTEACRQYGRETLAYLSSLEEEGTMENADVTALRNCLSRVKTLGEELLPRGLDIKQEELGDLVDKEMAATSAAIEAATTRIEEILSKSRAGDTGVKLEVNERILGSCTSLMQAIKVLVVASKDLQKEIVESGRGTASPKEFYAKNSRWTEGLISASKAVGWGATIMVDAADLVVQGKGKFEELMVCSREIAASTAQLVAASKVKANKGSLNLTQLQQASRGVNQATAAVVASTISGKSQIEETDSMDFSSMTLTQIKRQEMDSQVRVLELENDLQKERQKLGELRKKHYELAGVAEGWEEGTEASPSTVQEAIPDKE
B4: HAP1 (huntingtin-associated protein 1), mouse brain (protein, UniProt O35668 1-628)
chain: MRPKEQVQSGAGDGTGSGDPAAGTPTTQPAVGPAPEPSAEPKPAPAQGTGSGQKSGSRTKTGSFCRSMIIGDSDAPWTRYVFQGPYGPRATGLGTGKAEGIWKTPAAYIGRRPGVSGPERAAFIRELQEALCPNPPPTKKITEDDVKVMLYLLEEKERDLNTAARIGQSLVKQNSVLMEENNKLETMLGSAREEILHLRKQVNLRDDLLQLYSDSDDDDDEEDEEDEEEGEEEEREGQRDQDQQHDHPYGAPKPHPKAETAHRCPQLETLQQKLRLLEEENDHLREEASHLDNLEDEEQMLILECVEQFSEASQQMAELSEVLVLRLEGYERQQKEITQLQAEITKLQQRCQSYGAQTEKLQQMLASEKGIHSESLRAGSYMQDYGSRPRDRQEDGKSHRQRSSMPAGSVTHYGYSVPLDALPSFPETLAEELRTSLRKFITDPAYFMERRDTHCREGRKKEQRAMPPPPAQDLKPPEDFEAPEELVPEEELGAIEEVGTAEDGQAEENEQASEETEAWEEVEPEVDETTRMNVVVSALEASGLGPSHLDMKYVLQQLSNWQDAHSKRQQKQKVVPKDSPTPQQQTNMGGGILEQQPRVPTQDSQRLEEDRATHSPSAREEEGPSGAT
B5: syntaxin-17 (SYX17), mouse brain (protein, UniProt Q9D0I4 1-301)
chain: MSEDEEKVKLRRLEPAIQKFTKIVIPTDLERLRKHQINIEKYQRCRIWDKLHEEHINAGRTVQQLRSNIREMEKLCLKVHKDDLVLLKRMIDPVKEAAATATAEFLQLHLESVEELKKQVNDEELLQPSLTRSTTVDGVLHTGEAEAASQSLTQIYALPEIPQDQNAAESWETLEADLIELSHLVTDMSLLVSSQQEKIDSIADHVNSAAVNVEEGTKNLQKAAKYKLAALPVAGALIGGVVGGPIGLLAGFKVAGIAAALGGGVLGFTGGKLIQRRKQKMMEKLTSSCPDLPSQSDKKRS

Legend:
[1] = target: Rab4 (human iNeurons) (human (endogenous in iNeurons)); assay: co-IP; Rab4 precipitated with a rabbit monoclonal antibody to Rab4 and Protein A/G magnetic beads from the vesicle fraction (VF) of human iNeurons, WT (Q17) and HD (Q109); no detergents, to preserve vesicular membranes; western blot, band intensities of the HD IP normalised to the WT IP; no-antibody control
[2] = target: Rab4 (mouse brain) (mouse (endogenous in mouse brain)); assay: co-IP; Rab4 precipitated with a rabbit monoclonal antibody to Rab4 (1 h, 25 °C) and Protein A/G magnetic beads from 1000 μg of the vesicle fraction (VF) of mouse brain; no detergents, to preserve vesicular membranes (Rab4-membrane IP); eluted at pH 2.8; western blot; no-antibody control

| Binder | binding [1] | binding [2] |
| --- | --- | --- |
| B1 | binds |  |
| B2 |  | binds |
| B3 |  | binds |
| B4 |  | no binding |
| B5 |  | no binding |
